PubChem BioAssay AID504791 | Drosophila RNAi Screening Center | 2011
Assay: 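Factors in Argonaute-based small RNA production and activity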 (primary screen). Cell system: Drosophila S2-derived reporter cells. Knock-down reagent: long dsRNA against Drosophila genes, about 150-250 ng dsRNA per well (siRNA assay); about 80-120 ng (miRNA assay). Timing: about 5 days (siRNA assay); about 4 days (miRNA assay). Conditions: copper sulfate induction of reporters: 25 µM (siRNA assay); 200 mM stated (miRNA assay), 1-2 days before reading. Measurement: 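Per-well ratio of Renilla over firefly light, expressed relative to that plate's average ratio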. Hit rule: 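a well was a first-pass pick when its plate-scaled ratio rose above 1.5 (siRNA assay) or 1.6 (miRNA assay), or dropped below 0.6; a gene counted only if two separate dsRNAs agreed on retest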.
The screen tested about 23,000 reagents; shown is an unselected part of those with a known target gene and a result. Of all reagents, 199 (0.86%) were called active. 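Plate-scaled ratios behind the calls are not deposited; printed light signals are raw; many rows marked increased or decreased are still called inactive.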 A number with no mark means an inactive call. Names joined by + are all predicted targets of the reagent. The record does not give: the direction of the score.

no.	gene	DRSC id	stable siRNA reporter change	miRNA reporter change	stable assay Renilla, run 1 (luminescence)	stable assay firefly, run 1 (luminescence)
1	CG32374	DRSC10986			7000	5.09e5
2	CG14110	DRSC10113			8700	4.71e5
3	Spt6	DRSC18836			3615	2.66e5
4	Orct	DRSC16777			8878	3.43e5
5	mRpS18B	DRSC02107			7718	2.28e6
6	Exo84	DRSC15965			6592	3.43e5
7	CG7376	DRSC10829			7687	5.03e5
8	Gr47b	DRSC05275			5911	3.17e5
9	didum	DRSC07603			7398	4.01e5
10	PRL-1	DRSC03393			6616	4.23e5
11	CG12995	DRSC19515			5328	4.20e5
12	Osi5	DRSC12276			7114	4.54e5
13	Cpr65Av	DRSC09727			6726	4.96e5
14	Tie	DRSC08104			4668	4.34e5
15	Tie	DRSC08702			7462	4.38e5
16	CG33325	DRSC12699			6594	4.16e5
17	E(spl)m4-BFM	DRSC16992			7410	3.27e5
18	CG14384	DRSC14842			6614	4.39e5
19	CG7329	DRSC03046			6624	4.12e5
20	CR30409	DRSC22058			9491	5.55e5
21	CG14770	DRSC17947			4700	3.57e5
22	CG9135	DRSC03144			26416	3.90e5
23	CG13390	DRSC02261			7391	3.72e5
24	CG14120	DRSC10124			6979	4.37e5
25	rpk	DRSC12386			9002	3.38e5
26	rpk	DRSC21656			8847	4.68e5
27	xit	DRSC18364			7847	5.86e5
28	NimB4	DRSC01884			1.75e5	1.39e6
29	mys	DRSC18799			4807	3.16e5
30	Cog7	DRSC16331			6986	4.49e5
31	CG32196	DRSC09548	reporter ratio raised past the hit cutoff		3108	79019
32	CG32708	DRSC18411			5012	4.12e5
33	CG34032 (retired record)	DRSC09225			6168	4.88e5
34	NO66	DRSC18252			7290	4.72e5
35	glo	DRSC16145		reporter ratio raised past the hit cutoff (active)	6851	4.46e5
36	glo	DRSC27807		reporter ratio raised past the hit cutoff (active)		
37	CG34247	DRSC09933			6834	3.72e5
38	CG11836	DRSC14396			9629	3.95e5
39	CG16789	DRSC15155			7220	3.85e5
40	sqa	DRSC06693			6847	3.27e5
41	sqa	DRSC21635			8209	4.16e5
42	CG15439	DRSC00453			4551	5.35e5
43	tpr	DRSC04468			37688	4.77e5
44	CycJ	DRSC08653			7998	5.50e5
45	Mur82C	DRSC12011			4055	3.79e5
46	Mur82C	DRSC12212			4466	4.90e5
47	Pex1	DRSC11358			7875	2.58e5
48	IntS9	DRSC10493			12076	3.68e5
49	CG2004	DRSC18200			5247	3.34e5
50	CG12848	DRSC04128			6455	4.88e5
51	CG10591	DRSC09748			7830	4.63e5
52	CG13868	DRSC06427			9817	3.23e5
53	CG1979	DRSC12495			8867	4.22e5
54	CG42390	DRSC15866			6818	1.90e5
55	CG42390	DRSC23064			3560	3.12e5
56	CG42390	DRSC23065			5283	3.72e5
57	CG33768	DRSC11715		reporter ratio lowered past the hit cutoff	7757	5.70e5
58	CG41520	DRSC21102			4792	3.49e5
59	CG41520	DRSC21103			5575	3.93e5
60	CG15719	DRSC19685			5079	4.74e5
61	CG30325	DRSC05685			5771	3.12e5
62	CG32511 (retired record)	DRSC20697			4672	4.95e5

Look-ups from above:
Value of rpk [DRSC12386] under “stable assay firefly, run 1 (luminescence)”: 3.38e5
CG16789 [DRSC15155], stable assay Renilla, run 1 (luminescence) → 7220
Entry of didum [DRSC07603] under “stable assay firefly, run 1 (luminescence)”: 4.01e5
sqa [DRSC21635], stable assay firefly, run 1 (luminescence): 4.16e5
For “stable assay Renilla, run 1 (luminescence)”, Cpr65Av [DRSC09727] is entered as 6726
CG12848 [DRSC04128], stable assay Renilla, run 1 (luminescence): 6455

The listing continues.
no.	gene	DRSC id	stable siRNA reporter change	miRNA reporter change	stable assay Renilla, run 1 (luminescence)	stable assay firefly, run 1 (luminescence)
63	AnxB9	DRSC14111			7967	2.50e5
64	mat	DRSC08376			5552	4.26e5
65	mat	DRSC22841			4559	3.43e5
66	Torsin	DRSC18570			3720	3.23e5
67	DCP1	DRSC04091			13839	1.83e6
68	CG18179	DRSC10303			6144	3.44e5
69	CIAPIN1	DRSC03559			10606	1.55e6
70	CG14418	DRSC18637			5507	3.06e5
71	CG14418	DRSC23051			6110	4.13e5
72	CR12628 + Mgstl	DRSC03702			5760	4.40e5
73	CR12628 + Mgstl	DRSC20568			5890	4.55e5
74	Tmem63	DRSC06063			6803	4.32e5
75	CG8635	DRSC07226			7843	4.43e5
76	NimB5	DRSC01885			7332	4.64e5
77	kek4	DRSC03220			12706	7.27e5
78	cindr	DRSC14126			7262	4.02e5
79	cindr	DRSC14298			5519	2.63e5
80	Nhe2	DRSC03172			7107	3.66e5
81	Nhe2	DRSC03377			7786	4.62e5
82	Atg18a	DRSC10943			7771	3.77e5
83	lncRNA:CR32661	DRSC19794			4690	3.41e5
84	CG6380	DRSC02950			7235	4.29e5
85	MYPT-75D	DRSC10743			9326	3.06e5
86	nsr	DRSC04427			8962	6.89e5
87	nsr	DRSC22806			3484	2.65e5
88	Tsp26A	DRSC03135			8198	4.24e5
89	Men	DRSC12924			3639	4.09e5
90	Men	DRSC16738			4011	3.01e5
91	Men	DRSC22694			5551	5.20e5
92	SH3PX1	DRSC11139			4738	3.14e5
93	CG32201	DRSC22452			2576	3.06e5
94	CG13337	DRSC06371			6555	3.37e5
95	CG18231	DRSC10307			7882	3.56e5
96	Alg11	DRSC11647			10430	5.71e5
97	CG33160	DRSC08197			5499	3.51e5
98	CG34112	DRSC12235			6496	3.63e5
99	RIOK1	DRSC09853			10189	4.86e5
100	CG13023	DRSC09454			5578	4.22e5
101	CG13023	DRSC09903			7235	3.30e5
102	htl	DRSC16968			9687	2.72e5
103	S6kII	DRSC20645			7618	4.70e5
104	CG3808	DRSC10377			7441	4.66e5
105	CG18371	DRSC06733			6575	3.15e5
106	CG17217	DRSC02592			7982	3.92e5
